This is an account of results in PMC4232310.

Results are given in words; binding and its absence hold for the method and conditions named. Binding seen in cells or lysates may run through a third protein. Some entries that bind do so weakly or less than the wild type. Tags and fused reporters may be left off the sequences shown.

What all share (test): co-IP; dss1Δ S. pombe expressing Dss1-GFP fusion proteins; immunoprecipitation with antibodies to GFP; western blot for Mts4/Rpn1 and GFP
(In western blotting, separated proteins are transferred to a membrane and probed.)

The target in experiment [1] is T1, Dss1-GFP fusion protein, UBS-I mutant (S. pombe) (UniProt O14140).
T1 sequence: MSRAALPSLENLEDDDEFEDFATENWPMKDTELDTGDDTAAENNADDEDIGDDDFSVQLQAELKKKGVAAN

The target of experiment [2] is T2, Dss1-GFP fusion protein, wild-type (S. pombe) (UniProt O14140).
T2 sequence: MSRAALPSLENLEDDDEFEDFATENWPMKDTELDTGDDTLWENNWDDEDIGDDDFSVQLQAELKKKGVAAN

Experiment [3] deals with T3, Dss1-GFP fusion protein, UBS-II mutant (S. pombe) (UniProt O14140).
T3 sequence: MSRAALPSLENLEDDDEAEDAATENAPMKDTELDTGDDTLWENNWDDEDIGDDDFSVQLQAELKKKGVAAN

In experiment [4] the target is T4, Dss1-GFP fusion protein, mutated in both UBS-I and UBS-II (S. pombe) (UniProt O14140).
T4 sequence: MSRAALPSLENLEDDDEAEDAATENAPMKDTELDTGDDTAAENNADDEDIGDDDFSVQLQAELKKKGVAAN

B1: proteasome subunit Mts4/Rpn1 (protein, UniProt P87048 1-891)
chain: MSSKDISSKSPSGNDALNDKKGTKTSETNDRNSTNNTKERDELEDLSEEDLQLKNDLELLVQAVQDATPELVGSSLTQLKEIIRTSTSSMTAVPKPLKFLRPHYFTLVKIYDSWPQSPQKTQLADILSVLGMSYSNTSKHESLKYRLQGVTTDPSLWGHEYVRHLASEIEEEFASRQEEEAPTDDLMELALTIVPFFLTHNAEADAIDLLQELGAIEKVVPFVELDNASRVCLYITSCVNLLPFPEDVAMLRTAHAIYRKFDQLTQALNVAIRLDDMSLIKEDCEAATDPLLKKQMSYMLARQQIPMDMGDEELNDALNNTHLSDHFHYLGKELNLMDPKVPEDIFKTHLEVARTGLGASGVYSAKQNLANTFVNALVNAGYSNDRLILVDDEKTSWIYKNKESGLISATASIGLLQLWNVDMGLSLLDKYLYSSEENTKAGALLGIGVTNVAVRNEADPAMAILSEYLETGSVKLRASAILGLGLAYSGANREDLLDMLSPIVTDTDCPMQLSCLAALSLGLIFVGTCNGDVASTILQTLMEREESAQNDQWGRFMALGLALLFNGKQDLADATVETLKAIEGKIARQAEILVDICSYAGTGNVLHIQKLLHICSEPPSDDAKESETTIQTFAALGVATIAMGEDIGAEMVLRHFDHMMHYGEPSIRKAIPLALGLLSASNPQMRIFDTLSRYSHDNDLDVAYNAIFAMGLVGAGTSNARLAQLLRQLASYYHKESNALFMVRIAQGLLYLGKGTMTLNPYHTERQILGQTAFAGLMTVVLAMLDANTFVLDTSHWLLYAITLAIRPRMLITLGEDGQYLPVSVRVGQAVDVVGQAGRPKVITGWVTHTTPVLLHHNERAELATEAYTPLTSLEGIVILKKNTEDIEMTA
Turning to B1, the binding result in experiment [1] is listed as “binds”; in experiment [2], “binds”; in experiment [3], “binds”; in experiment [4], “no binding”.
